{"source": "PubChem BioAssay AID624150 (Cancer Research UK Cambridge, 2012)", "test": "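Which chromatin factors steer differentiation of epidermal stem cells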 (primary screen)", "cells": "primary human epidermal keratinocytes", "knock-down reagent": "siRNA pool against human genes, 1-2 µM siRNA in 20 µl nucleofection", "time to read-out": "72 h after transfection plus 48 h differentiation (about 5 days)", "treatment": "five arms for 48 h: vehicle, AG1478 10 µM, BMP2/7 200 ng/ml, both together, or 10% serum", "measurement": "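Per-cell amount of a differentiation marker read by infrared scanning of the plate, given as a z-score within each plate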", "reading the numbers": "z-score, vehicle: higher = more differentiation marker per cell", "note": "The whole screen tested 331 reagents; this is an unselected part. 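Each arm had three replicate z-scores, but only the first replicate is printed; higher values mean more differentiation marker per cell.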 Not all columns of the deposit are shown. No sequences are given here."}
{"gene knocked down": "ZCWPW2 (GeneID 152098)", "z-score, vehicle": -0.664}
{"gene knocked down": "ACACA (GeneID 31)", "z-score, vehicle": -0.982}
{"gene knocked down": "ZMYND8 (GeneID 23613)", "z-score, vehicle": -0.726}
{"gene knocked down": "SIRT2 (GeneID 22933)", "z-score, vehicle": 0.102}
{"gene knocked down": "BAZ2B (GeneID 29994)", "z-score, vehicle": 0.537}
{"gene knocked down": "PRDM11 (GeneID 56981)", "z-score, vehicle": -1.51}
{"gene knocked down": "KDM4A (GeneID 9682)", "z-score, vehicle": 1.02}
{"gene knocked down": "RIOX2 (GeneID 84864)", "z-score, vehicle": -1.59}
{"gene knocked down": "ING4 (GeneID 51147)", "z-score, vehicle": 0.475}
{"gene knocked down": "ERCC6L (GeneID 54821)", "z-score, vehicle": 0.138}
{"gene knocked down": "SPEN (GeneID 23013)", "z-score, vehicle": -1.43}
{"gene knocked down": "LIN9 (GeneID 286826)", "z-score, vehicle": -1.28}
{"gene knocked down": "HDGFL1 (GeneID 154150)", "z-score, vehicle": 0.0527}
{"gene knocked down": "KDM5A (GeneID 5927)", "z-score, vehicle": 0.552}
{"gene knocked down": "KDM4C (GeneID 23081)", "z-score, vehicle": -0.297}
{"gene knocked down": "BAZ2A (GeneID 11176)", "z-score, vehicle": 0.876}
{"gene knocked down": "MBTD1 (GeneID 54799)", "z-score, vehicle": 0.685}
{"gene knocked down": "SMARCA4 (GeneID 6597)", "z-score, vehicle": -0.23}
{"gene knocked down": "SETDB2 (GeneID 83852)", "z-score, vehicle": -0.542}
{"gene knocked down": "HDGFL2 (GeneID 84717)", "z-score, vehicle": 0.805}
{"gene knocked down": "SMARCA2 (GeneID 6595)", "z-score, vehicle": -0.0498}
{"gene knocked down": "NSD3 (GeneID 54904)", "z-score, vehicle": -2.17}
{"gene knocked down": "OGT (GeneID 8473)", "z-score, vehicle": -0.478}
{"gene knocked down": "RNMT (GeneID 8731)", "z-score, vehicle": -0.35}
{"gene knocked down": "UTY (GeneID 7404)", "z-score, vehicle": -0.25}
{"gene knocked down": "SIRT6 (GeneID 51548)", "z-score, vehicle": -1.3}
{"gene knocked down": "JMJD1C (GeneID 221037)", "z-score, vehicle": -0.329}
{"gene knocked down": "ETV6 (GeneID 2120)", "z-score, vehicle": 0.998}

Part of the list above, reformatted.
gene knocked down,"z-score, vehicle"
SPEN (GeneID 23013),-1.43
LIN9 (GeneID 286826),-1.28
HDGFL1 (GeneID 154150),0.0527
